{"source": "patent US9012431B2", "about": "“Boron-containing small molecules as anti-inflammatory agents” (Anacor Pharmaceuticals, Inc., priority 2008, dated 2015)", "note": "For at least one compound, name, drawing or mass did not settle the structure."}
{"system": "T1, PDE4 partially purified from human U-937 myeloid leukemia cells", "T1 construct": "PDE4 partially purified from human U-937 myeloid leukemia cells was used", "test": "PDE4 Assay (enzyme from U-937 cells, [3H]cAMP)", "assay_type": "biochemical", "settings": "PDE4 from U-937 cells, Tris buffer pH 7.5, 20 minutes at 25° C.", "method": "Test article and/or vehicle was incubated with 0.2 mg enzyme and 1 mM cAMP containing 0.01 mM [3H]cAMP in Tris buffer pH 7.5 for 20 minutes at 25° C. The reaction was terminated by boiling for 2 minutes and the resulting AMP is converted to adenosine by addition of 10 mg/ml snake venom nucleotidase and further incubation at 37° C. for 10 minutes. Unhydrolyzed cAMP is bound to AG1-X2 resin, and remaining [3H]Adenosine in the aqueous phase is quantitated by scintillation counting.", "units": {"IC50": "nM"}}
{"smiles": "COCCNc1nc(Oc2ccc3c(c2)COB3O)ccc1C#N", "note": "[D111, 6-(1-Hydroxy-1,3-dihydro-benzo[c][1,2]oxaborol-5-yloxy)-2-(2-methoxy-ethylamino)-nicotinonitrile]", "IC50": "< 1000"}
{"smiles": "COc1nc(Oc2ccc3c(c2F)COB3O)ccc1C#N", "note": "[D114, 6-(4-Fluoro-1-hydroxy-1,3-dihydrobenzo[c][1,2]oxaborol-5-yloxy)-2-methoxynicotinonitrile]", "IC50": "< 1000"}
{"smiles": "NCc1ccc(Oc2ccc3c(c2)COB3O)nc1NCCO", "note": "[D117]", "IC50": "< 1000"}
{"smiles": "N#Cc1ccc(Oc2ccc3c(c2)COB3O)nc1NCCO", "note": "[D132, 6-(1-hydroxy-1,3-dihydro-benzo[c][1,2]oxaborol-5-yloxy)-2-(2-hydroxy-ethylamino)-nicotinonitrile]", "IC50": "< 1000"}
